According to PMC8355874:
These are yes or no findings as the source states them, for the method shown. Binding seen in cells or lysates may run through a third protein. Some results given as binding are weak or reduced against the parent protein; the word gives no strength.

The chains behind the UniProt entries cited, without tags or fusion partners.
UniProt P67809: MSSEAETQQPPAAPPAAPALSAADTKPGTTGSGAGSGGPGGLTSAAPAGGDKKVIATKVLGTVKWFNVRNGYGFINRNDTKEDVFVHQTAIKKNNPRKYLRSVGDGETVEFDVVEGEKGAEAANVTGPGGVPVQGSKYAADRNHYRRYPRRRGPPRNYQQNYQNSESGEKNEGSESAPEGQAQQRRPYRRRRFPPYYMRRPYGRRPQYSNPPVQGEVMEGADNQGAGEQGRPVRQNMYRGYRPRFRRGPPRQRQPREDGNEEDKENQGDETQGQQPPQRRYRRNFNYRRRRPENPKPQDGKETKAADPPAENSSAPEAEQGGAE

Target: T1, Vitamin D receptor (VDR), expressed in human cells (not stated (human or mouse cDNA cloned)) (UniProt P11473)
T1 sequence: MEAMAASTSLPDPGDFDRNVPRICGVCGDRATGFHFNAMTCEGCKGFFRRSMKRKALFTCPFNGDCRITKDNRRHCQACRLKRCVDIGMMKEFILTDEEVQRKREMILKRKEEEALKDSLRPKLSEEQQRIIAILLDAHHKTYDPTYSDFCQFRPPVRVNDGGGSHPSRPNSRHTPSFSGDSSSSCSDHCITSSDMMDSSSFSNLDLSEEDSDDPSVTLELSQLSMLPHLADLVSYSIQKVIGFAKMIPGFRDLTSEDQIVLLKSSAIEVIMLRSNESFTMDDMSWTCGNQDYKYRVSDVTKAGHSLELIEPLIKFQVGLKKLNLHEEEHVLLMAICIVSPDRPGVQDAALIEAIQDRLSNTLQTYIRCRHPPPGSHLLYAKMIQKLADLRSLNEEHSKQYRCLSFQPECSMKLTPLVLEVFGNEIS
Assay: co-IP; human cells (HOK and NCM460 cell lines) co-transfected with plasmids; lysate supernatants incubated with HA or Flag antibodies and protein A/G beads for four hours; SDS-PAGE and western blot

With “Y box-binding protein 1 (YBX-1), expressed in human cells (from UniProt P67809 1-324)” the binding was “binds”.
